Results taken from PubChem BioAssay AID248 (DTP/NCI, 2004).
The list is a part of this screen's results and no random one: it gathers tests that were run many times, whatever their T/C, doses with no T/C, and many T/C values between a quarter and a half above the control. Further doses and runs are listed elsewhere. T/C gives the treated animals as a percentage of the vehicle group. Some doses have a count of surviving animals in place of a T/C: the source files T/C as zero there, which appears to mark a toxic dose or a test without result, not a measured value. Some survivor counts are full or nearly so, which does not show that the dose was tolerated: the source hardly ever lists a survival T/C far under the control, and the zero likely stands for such cases as well. Survivors were counted at the toxicity check, usually on the fifth day, unless a day is given; later deaths do not show. Schedule codes are those of the source, read here as Q, the interval in days (D) or hours (H), X, the number of doses. Where survival is the endpoint, this PubChem deposit counts one and a half times the control or more as active, and values a quarter to a half above the control carry no call in these data; other NCI protocols may use other cut-offs.

System: L1210 leukemia ip in BDF1 mice, survival T/C
Assay: NCI In Vivo Anticancer Drug Screen. Data for tumor model L1210 Leukemia (intraperitoneal) in B6D2F1 (BDF1) mice
Settings: T/C endpoint: mean survival time, higher T/C = longer survival
[1] = dose: 400.0 mg/kg/injection, schedule: Q04DX003 (ip), vehicle: saline with Tween-80
[2] = dose: 400.0 mg/kg/injection, schedule: Q01DX009 (ip), vehicle: Klucel (hydroxypropylcellulose) (HPC)
[3] = dose: 100.0 mg/kg/injection, schedule: Q04DX003 (ip), vehicle: saline
[4] = dose: 200.0 mg/kg/injection, schedule: Q04DX003 (ip), vehicle: saline
[5] = dose: 400.0 mg/kg/injection, schedule: Q04DX003 (ip), vehicle: saline

In the case of `Cc1noc(N)c1[N+](=O)[O-]`, the survivor count (dose: 200.0 mg/kg/injection, schedule: Q01DX009 (ip), vehicle: saline) was 6 of 6 and the survivor count (dose: 400.0 mg/kg/injection, schedule: Q01DX009 (ip), vehicle: saline) was 3 of 6.
With `NNC(=O)CCc1ccccc1Br` the survivor count [1] was 4 of 6.
In the case of `CC1CNC(=S)S1` (configuration not stated), the survivor count [2] was 3 of 6.
With `COC(=O)[CH]([Hg][CH](C(=O)OC)C(=O)OC)C(=O)OC` the survivor count (dose: 12.5 mg/kg/injection, schedule: Q04DX002 (ip), vehicle: Klucel (hydroxypropylcellulose) (HPC)) was 3 of 3, the survivor count (dose: 25.0 mg/kg/injection, schedule: Q04DX002 (ip), vehicle: Klucel (hydroxypropylcellulose) (HPC)) was 1 of 3 and the survivor count (dose: 50.0 mg/kg/injection, schedule: Q04DX002 (ip), vehicle: Klucel (hydroxypropylcellulose) (HPC)) was 0 of 3. The survivor count (dose: 100.0 mg/kg/injection, schedule: Q04DX002 (ip), vehicle: Klucel (hydroxypropylcellulose) (HPC)) was 0 of 3, the survivor count (dose: 200.0 mg/kg/injection, schedule: Q04DX002 (ip), vehicle: Klucel (hydroxypropylcellulose) (HPC)) was 0 of 3 and the survivor count (dose: 400.0 mg/kg/injection, schedule: Q04DX002 (ip), vehicle: Klucel (hydroxypropylcellulose) (HPC)) was 0 of 3.
`[N-]=[N+]=[N-]` was tested, and the survivor count (dose: 40.0 mg/kg/injection, schedule: Q01DX001 (ip), vehicle: saline) was 0 of 4, the survivor count (dose: 62.0 mg/kg/injection, schedule: Q01DX015 (ip), vehicle: saline) was 0 of 6 and the survivor count (dose: 80.0 mg/kg/injection, schedule: Q01DX001 (ip), vehicle: saline) was 0 of 4. For the same molecule, the survivor count (dose: 125.0 mg/kg/injection, schedule: Q01DX015 (ip), vehicle: saline) was 0 of 6, the survivor count (dose: 250.0 mg/kg/injection, schedule: Q01DX015 (ip), vehicle: saline) was 0 of 6 and the survivor count (dose: 500.0 mg/kg/injection, schedule: Q01DX015 (ip), vehicle: saline) was 0 of 6.
With `ClC1=C(Cl)C(Cl)(Cl)C1(Cl)Cl` the survivor count (dose: 150.0 mg/kg/injection, schedule: Q01DX001 (ip), vehicle: carboxymethylcellulose (CMC)) was 0 of 6 and the survivor count (dose: 300.0 mg/kg/injection, schedule: Q01DX001 (ip), vehicle: carboxymethylcellulose (CMC)) was 0 of 6.
`COc1ccc(CN2CC(C)NC(C)C2)cc1` (configuration not stated) was tested, and the survivor count (dose: 25.0 mg/kg/injection, schedule: Q01DX009 (ip), vehicle: water) was 6 of 6, the survivor count (dose: 50.0 mg/kg/injection, schedule: Q01DX009 (ip), vehicle: water) was 6 of 6 and the survivor count (dose: 100.0 mg/kg/injection, schedule: Q01DX009 (ip), vehicle: water) was 5 of 6. For the same molecule, the survivor count (dose: 200.0 mg/kg/injection, schedule: Q01DX009 (ip), vehicle: water) was 6 of 6 and the survivor count (dose: 400.0 mg/kg/injection, schedule: Q01DX009 (ip), vehicle: water) was 0 of 6.
`CCCCNN` was tested, and the survivor count (dose: 300.0 mg/kg/injection, schedule: Q01DX001 (ip), vehicle: other) was 0 of 6.
For `CCCCC(CC)COC(=O)C[N+](C)(C)CCOC(c1ccccc1)c1ccccc1` (configuration not stated), the survivor count (dose: 25.0 mg/kg/injection, schedule: Q04DX003 (ip), vehicle: saline with Tween-80) was 3 of 6, the survivor count (dose: 25.0 mg/kg/injection, schedule: Q04DX003 (ip), vehicle: saline) was 2 of 6 and the survivor count (dose: 50.0 mg/kg/injection, schedule: Q04DX003 (ip), vehicle: saline) was 0 of 6. For the same molecule, the survivor count (dose: 100.0 mg/kg/injection, schedule: Q04DX003 (ip), vehicle: saline with Tween-80) was 0 of 6, the survivor count [3] was 0 of 6 and the survivor count (dose: 200.0 mg/kg/injection, schedule: Q04DX003 (ip), vehicle: saline with Tween-80) was 0 of 6. The survivor count [1] was 0 of 6.
With `OCCCNc1nc2c(Cl)cc(Cl)cc2c2ccccc12` the survivor count [2] was 2 of 6.
In the case of `Clc1ccccc1C(=Nc1ccccc1)C(=Nc1ccccc1)c1ccccc1Cl`, the survivor count (dose: 200.0 mg/kg/injection, schedule: Q01DX001 (ip), vehicle: Klucel (hydroxypropylcellulose) (HPC)) was 6 of 6.
In the case of `COC(=O)c1cc(C)cc(N(c2ccccc2N)S(=O)(=O)c2ccc(C)cc2)c1C`, the survivor count (dose: 400.0 mg/kg/injection, schedule: Q01DX001 (ip), vehicle: saline) was 4 of 4.
`O=C(/C=C(\CBr)c1ccc(-c2ccccc2)cc1)c1ccccc1` was tested, and the survivor count (dose: 200.0 mg/kg/injection, schedule: Q01DX001 (ip), vehicle: saline with Tween-80) was 6 of 6.
`CCCCCCCC(=O)N(C)OC` was tested, and the survivor count (dose: 200.0 mg/kg/injection, schedule: Q01DX009 (ip), vehicle: Klucel (hydroxypropylcellulose) (HPC)) was 4 of 6.
`O=C(O)c1cc(-c2cccc(C(F)(F)F)c2)nc2c(C(F)(F)F)cccc12` was tested, and the survivor count (dose: 200.0 mg/kg/injection, schedule: Q01DX009 (ip), vehicle: saline with Tween-80) was 2 of 6 and the survivor count [1] was 0 of 6.
With `[NH-]C(CC(N)=O)C(=O)O.[NH-]C(CC(N)=O)C(=O)O.[Pd+2]` (configuration not stated) the survivor count (dose: 400.0 mg/kg/injection, schedule: Q04DX002 (ip), vehicle: saline with Tween-80) was 1 of 3.
For `Clc1nc(I)c(Cl)c(I)n1`, the survivor count (dose: 50.0 mg/kg/injection, schedule: Q01DX009 (ip), vehicle: other) was 0 of 3, the survivor count (dose: 100.0 mg/kg/injection, schedule: Q01DX009 (ip), vehicle: other) was 0 of 3 and the survivor count (dose: 200.0 mg/kg/injection, schedule: Q01DX009 (ip), vehicle: other) was 0 of 3.
`COC1/C=C/OC2(C)Oc3c(C)c(O)c4c(O)c(c(/C=N/N(C)c5ncnc6c5ncn6C5OC(CO)C(O)C5O)c(O)c4c3C2=O)NC(=O)C(C)=C/C=C/C(C)C(O)C(C)C(O)C(C)C(OC(C)=O)C1C` (configuration not stated) was tested, and the T/C (dose: 100.0 mg/kg/injection, schedule: Q01DX009 (ip), vehicle: saline) was 128 % of control.
For `Nc1cccc2cn[nH]c12`, the survivor count (dose: 400.0 mg/kg/injection, schedule: Q01DX009 (ip), vehicle: other) was 3 of 6.
In the case of `Cc1ccc([N+](=O)[O-])o1`, the survivor count [1] was 4 of 6.
With `CC(CCC/C=C/CCCN(C)C(=N)N)CC(C)C1OC(=O)C(C)C(O)/C=C/C(C)C(O)C(C)C(O)C(C)C(O)CCCC(O)CC2(O)OC(CC(OC(=O)CC(=O)O)CC(O)CC(O)C(C)C(O)/C=C/C=C/C1C)CC(O)C2O` (configuration not stated) the survivor count (dose: 0.19 mg/kg/injection, schedule: Q01DX001 (ip), vehicle: saline) was 0 of 6, the survivor count (dose: 0.39 mg/kg/injection, schedule: Q01DX001 (ip), vehicle: saline) was 0 of 6 and the survivor count (dose: 0.78 mg/kg/injection, schedule: Q01DX001 (ip), vehicle: saline) was 0 of 6. For the same molecule, the survivor count (dose: 1.56 mg/kg/injection, schedule: Q01DX001 (ip), vehicle: saline) was 2 of 6, the survivor count (dose: 3.12 mg/kg/injection, schedule: Q01DX001 (ip), vehicle: saline) was 0 of 6 and the survivor count (dose: 3.2 mg/kg/injection, schedule: Q04DX003 (ip), vehicle: saline) was 6 of 6. The survivor count (dose: 6.25 mg/kg/injection, schedule: Q01DX001 (ip), vehicle: saline) was 0 of 6, the survivor count (dose: 7.3 mg/kg/injection, schedule: Q04DX003 (ip), vehicle: saline) was 6 of 6 and the survivor count (dose: 10.0 mg/kg/injection, schedule: Q04DX003 (ip), vehicle: saline with Tween-80) was 2 of 6. For the same molecule, the survivor count (dose: 12.5 mg/kg/injection, schedule: Q01DX001 (ip), vehicle: saline) was 3 of 6, the survivor count (dose: 16.0 mg/kg/injection, schedule: Q04DX003 (ip), vehicle: saline with Tween-80) was 1 of 6 and the survivor count (dose: 24.0 mg/kg/injection, schedule: Q04DX003 (ip), vehicle: saline with Tween-80) was 0 of 6. For the same molecule, the survivor count (dose: 25.0 mg/kg/injection, schedule: Q01DX001 (ip), vehicle: saline) was 3 of 6, the survivor count (dose: 50.0 mg/kg/injection, schedule: Q01DX001 (ip), vehicle: saline) was 0 of 6 and the survivor count (dose: 100.0 mg/kg/injection, schedule: Q01DX001 (ip), vehicle: acetone) was 0 of 6. The survivor count (dose: 200.0 mg/kg/injection, schedule: Q01DX001 (ip), vehicle: acetone) was 0 of 6 and the survivor count (dose: 400.0 mg/kg/injection, schedule: Q01DX001 (ip), vehicle: acetone) was 0 of 6.
With `CN(C)CCN1C(=O)c2ccccc2N(C)c2ccccc21` the survivor count [3] was 3 of 4, the survivor count [4] was 4 of 4 and the survivor count [5] was 0 of 4.
For `Cc1cc(Cl)c2ccccc2[n+]1C`, the survivor count [4] was 0 of 6 and the survivor count [5] was 0 of 6.
